Source: PubChem BioAssay AID1224826 (NIAID, 2016)
The deposit covers about 17,000 reagents; below is a part drawn at random. In the full data, about 1,110 (6.6%) are marked active. 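Active means lowered or raised reporter signal; replicate intensities are raw and not normalised per plate.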 Reagents against one gene are numbered here. Not all columns of the deposit are shown.

Purpose: 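Genes that change LPS-induced Tnf promoter activity in mouse macrophages when knocked down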 (primary screen)
Cell system: RAW264.7 G9 macrophages from mouse bearing reporters for p65 (GFP) and the Tnf promoter (mCherry)
Reagent: siRNA pool against mouse genes, 100 nM
Duration: 16 h of LPS stimulation, after 2 days of siRNA transfection
Conditions: bacterial lipopolysaccharide (Salmonella minnesota R595), 10 ng/ml
Measured: 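Imaged Tnf reporter mCherry in nuclei, minus background, normalised per plate to the median and expressed as robust z-scores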
Direction: Tnf reporter robust z-score: higher = stronger Tnf promoter reporter signal after LPS; Tnf reporter intensity: higher = stronger Tnf promoter reporter signal
Hit rule: 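Called active when robust z-score is at most -1.3, matching the median of the Tlr4 knock-down control, or over 3; control wells and wells with under 50 cells never active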
Meaning of the calls: active = Tnf reporter clearly lowered or raised; inactive = no clear change in Tnf reporter

| Target gene | pool no. | Tnf reporter robust z-score | fewer than 50 cells in well | Tnf reporter intensity, replicate 1 | Call |
| --- | --- | --- | --- | --- | --- |
| Nudt15 (GeneID 214254) | 1 | -0.29 | enough cells in well | 199 | inactive |
| Cuzd1 (GeneID 16433) | 1 | -0.27 | enough cells in well | 133 | inactive |
| Sh2b3 (GeneID 16923) | 1 | 0.19 | enough cells in well | 221 | inactive |
| Gdnf (GeneID 14573) | 1 | -1.07 | enough cells in well | 204 | inactive |
| Krt81 (GeneID 64818) | 1 | -0.62 | enough cells in well | 200 | inactive |
| Prpsap2 (GeneID 212627) | 1 | 1.86 | enough cells in well | 308 | inactive |
| Tmem167b (GeneID 67495) | 1 | 0.32 | enough cells in well | 155 | inactive |
| Apip (GeneID 56369) | 1 | 5.27 | enough cells in well | 390 | active |
| C8a (GeneID 230558) | 1 | 0.09 | enough cells in well | 149 | inactive |
| Rfx1 (GeneID 19724) | 1 | -0.79 | enough cells in well | 207 | inactive |
| B3gat3 (GeneID 72727) | 1 | -0.26 | enough cells in well | 172 | inactive |
| A930006J02Rik (retired record) (GeneID 77790) | 1 | -0.66 | enough cells in well | 134 | inactive |
| Hspg2 (GeneID 15530) | 1 | -0.17 | enough cells in well | 177 | inactive |
| Aff2 (GeneID 14266) | 1 | -0.74 | enough cells in well | 223 | inactive |
| Ttc19 (GeneID 72795) | 1 | -0.09 | enough cells in well | 139 | inactive |
| Serpinb5 (GeneID 20724) | 1 | 0.49 | enough cells in well | 397 | inactive |
| Khdc4 (GeneID 74200) | 1 | 0.33 | enough cells in well | 250 | inactive |
| Snrpb (GeneID 20638) | 1 | 1.41 | enough cells in well | 158 | inactive |
| BC061237 (GeneID 385138) | 1 | – | fewer than 50 cells per well; well left out of calls | 73 | inactive |
| Cdc25c (GeneID 12532) | 1 | 0.2 | enough cells in well | 278 | inactive |
| 9530091C08Rik (GeneID 320440) | 1 | 0.44 | enough cells in well | 200 | inactive |
| Saxo4 (GeneID 67752) | 1 | – | fewer than 50 cells per well; well left out of calls | 209 | inactive |
| Cmc2 (GeneID 66531) | 1 | 0.41 | enough cells in well | 200 | inactive |
| Mbd2 (GeneID 17191) | 1 | -1.67 | enough cells in well | 122 | active |
| Hp (GeneID 15439) | 1 | 0.41 | enough cells in well | 268 | inactive |
| Prkcd (GeneID 18753) | 1 | 1.12 | enough cells in well | 262 | inactive |
| Abhd16a (GeneID 193742) | 1 | 1.35 | enough cells in well | 315 | inactive |
| Cd33 (GeneID 12489) | 1 | -0.69 | enough cells in well | 117 | inactive |
| Muc4 (GeneID 140474) | 1 | 2.93 | enough cells in well | 342 | inactive |
| Muc4 (GeneID 140474) | 2 | – | fewer than 50 cells per well; well left out of calls | 189 | inactive |
| Ccl21a (GeneID 18829) | 1 | -0.57 | enough cells in well | 183 | inactive |
| Trim30a (GeneID 20128) | 1 | – | fewer than 50 cells per well; well left out of calls | 87 | inactive |
| Lancl3 (GeneID 236285) | 1 | 0.6 | enough cells in well | 242 | inactive |
| Dipk1c (GeneID 240479) | 1 | 0.07 | enough cells in well | 168 | inactive |
| Gigyf1 (GeneID 57330) | 1 | 1.85 | enough cells in well | 193 | inactive |
| Surf4 (GeneID 20932) | 1 | 1.33 | enough cells in well | 174 | inactive |
| Slc6a9 (GeneID 14664) | 1 | – | fewer than 50 cells per well; well left out of calls | 92.6 | inactive |
| Nhlrc2 (GeneID 66866) | 1 | -0.74 | enough cells in well | 134 | inactive |
| Cdkn1b (GeneID 12576) | 1 | 3.78 | enough cells in well | 507 | active |
| Bex2 (GeneID 12069) | 1 | 2.67 | enough cells in well | 246 | inactive |

Records listed so far whose target name starts with C or c:
| Target gene | pool no. | Tnf reporter robust z-score | fewer than 50 cells in well | Tnf reporter intensity, replicate 1 | Call |
| --- | --- | --- | --- | --- | --- |
| Cuzd1 (GeneID 16433) | 1 | -0.27 | enough cells in well | 133 | inactive |
| C8a (GeneID 230558) | 1 | 0.09 | enough cells in well | 149 | inactive |
| Cdc25c (GeneID 12532) | 1 | 0.2 | enough cells in well | 278 | inactive |
| Cmc2 (GeneID 66531) | 1 | 0.41 | enough cells in well | 200 | inactive |
| Cd33 (GeneID 12489) | 1 | -0.69 | enough cells in well | 117 | inactive |
| Ccl21a (GeneID 18829) | 1 | -0.57 | enough cells in well | 183 | inactive |
| Cdkn1b (GeneID 12576) | 1 | 3.78 | enough cells in well | 507 | active |
